The values below come from article PMC7862700.

Protein sequences, listed by entry. Tags and fused reporters are not part of them. Lines headed by an entry give the natural chain unless they say otherwise; changes in a name come on top.
UniProt Q01892: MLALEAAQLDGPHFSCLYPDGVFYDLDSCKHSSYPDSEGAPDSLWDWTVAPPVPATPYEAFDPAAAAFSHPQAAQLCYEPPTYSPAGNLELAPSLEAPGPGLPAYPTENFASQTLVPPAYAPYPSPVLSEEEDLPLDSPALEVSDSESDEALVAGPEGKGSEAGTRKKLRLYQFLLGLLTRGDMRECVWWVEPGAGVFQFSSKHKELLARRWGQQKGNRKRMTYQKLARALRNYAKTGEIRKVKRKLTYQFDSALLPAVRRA
UniProt P41161: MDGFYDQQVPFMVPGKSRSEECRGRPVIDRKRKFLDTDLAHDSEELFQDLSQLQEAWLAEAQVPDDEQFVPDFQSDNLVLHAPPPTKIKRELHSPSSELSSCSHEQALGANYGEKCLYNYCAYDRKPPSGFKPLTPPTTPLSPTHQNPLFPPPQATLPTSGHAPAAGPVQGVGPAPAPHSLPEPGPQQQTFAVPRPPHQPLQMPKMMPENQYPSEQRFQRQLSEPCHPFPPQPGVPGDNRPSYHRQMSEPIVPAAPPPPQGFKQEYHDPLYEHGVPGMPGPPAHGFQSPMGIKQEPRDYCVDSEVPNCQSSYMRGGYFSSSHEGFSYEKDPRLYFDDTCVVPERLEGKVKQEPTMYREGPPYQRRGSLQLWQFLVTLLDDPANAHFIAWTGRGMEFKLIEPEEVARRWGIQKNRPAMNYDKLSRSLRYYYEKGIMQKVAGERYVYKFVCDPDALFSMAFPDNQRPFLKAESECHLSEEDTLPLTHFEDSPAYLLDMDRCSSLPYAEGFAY
UniProt Q99607: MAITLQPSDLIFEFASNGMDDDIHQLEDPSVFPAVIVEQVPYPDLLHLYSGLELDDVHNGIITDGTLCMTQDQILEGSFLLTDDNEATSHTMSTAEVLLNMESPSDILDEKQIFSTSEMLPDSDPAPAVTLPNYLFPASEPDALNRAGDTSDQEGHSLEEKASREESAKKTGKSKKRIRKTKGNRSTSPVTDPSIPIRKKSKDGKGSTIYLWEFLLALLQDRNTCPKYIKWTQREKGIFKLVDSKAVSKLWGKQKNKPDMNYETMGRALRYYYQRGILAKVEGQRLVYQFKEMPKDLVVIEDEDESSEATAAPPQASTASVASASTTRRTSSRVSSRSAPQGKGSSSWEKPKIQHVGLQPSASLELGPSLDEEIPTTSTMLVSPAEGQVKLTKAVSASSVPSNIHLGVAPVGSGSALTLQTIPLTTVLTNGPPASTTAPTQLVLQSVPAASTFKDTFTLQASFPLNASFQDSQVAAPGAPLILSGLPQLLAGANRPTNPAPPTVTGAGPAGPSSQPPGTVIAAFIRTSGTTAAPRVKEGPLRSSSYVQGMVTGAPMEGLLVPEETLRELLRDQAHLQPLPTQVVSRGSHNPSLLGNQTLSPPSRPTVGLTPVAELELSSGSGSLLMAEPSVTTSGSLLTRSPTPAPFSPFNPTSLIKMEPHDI

The entries are a selection whose mix differs from that of the whole data set. At the low end of the ranking, values are background and their order means little.

Targets include SPIB (UniProt Q01892); ETV5 (UniProt P41161); ELF4 (UniProt Q99607).
What all share (experiment): DAPPL (digital affinity profiling via proximity ligation, sequencing)
Holding throughout (details): 10 mM Tris-HCl pH 7.5, 50 mM NaCl, 1 mM DTT, 4% glycerol, room temperature, 30 min; GST-TFs on glutathione beads, 16-mer random dsDNA library, 0.1% …; high values mean tight binding; double strand, one strand shown; scale: fold enrichment (6-mer frequency, TF over GST control)

For the next test, the target named is T1, FLI1 (UniProt Q01543).
T1 sequence: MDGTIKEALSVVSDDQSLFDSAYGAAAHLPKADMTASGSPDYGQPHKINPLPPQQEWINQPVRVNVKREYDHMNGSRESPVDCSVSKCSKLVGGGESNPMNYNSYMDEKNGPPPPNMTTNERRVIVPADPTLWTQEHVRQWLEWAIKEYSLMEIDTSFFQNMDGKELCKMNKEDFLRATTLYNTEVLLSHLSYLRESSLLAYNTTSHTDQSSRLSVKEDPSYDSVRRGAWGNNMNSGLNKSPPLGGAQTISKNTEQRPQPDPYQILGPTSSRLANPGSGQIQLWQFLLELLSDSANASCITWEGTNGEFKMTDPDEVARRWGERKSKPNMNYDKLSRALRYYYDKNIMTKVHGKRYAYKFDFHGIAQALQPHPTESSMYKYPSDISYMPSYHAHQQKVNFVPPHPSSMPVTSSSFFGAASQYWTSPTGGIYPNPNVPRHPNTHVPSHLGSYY

The target in another test is T2, EHF (UniProt Q9NZC4).
T2 sequence: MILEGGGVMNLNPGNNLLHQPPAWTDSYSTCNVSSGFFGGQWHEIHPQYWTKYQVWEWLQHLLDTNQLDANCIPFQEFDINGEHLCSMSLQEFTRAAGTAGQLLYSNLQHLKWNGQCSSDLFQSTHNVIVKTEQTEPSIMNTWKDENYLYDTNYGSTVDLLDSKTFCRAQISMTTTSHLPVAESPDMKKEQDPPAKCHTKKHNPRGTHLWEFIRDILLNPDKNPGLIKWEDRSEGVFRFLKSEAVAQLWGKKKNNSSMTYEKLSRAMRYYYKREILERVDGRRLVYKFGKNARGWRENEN

A further test concerns the target T3, ETV2 (UniProt O00321).
T3 sequence: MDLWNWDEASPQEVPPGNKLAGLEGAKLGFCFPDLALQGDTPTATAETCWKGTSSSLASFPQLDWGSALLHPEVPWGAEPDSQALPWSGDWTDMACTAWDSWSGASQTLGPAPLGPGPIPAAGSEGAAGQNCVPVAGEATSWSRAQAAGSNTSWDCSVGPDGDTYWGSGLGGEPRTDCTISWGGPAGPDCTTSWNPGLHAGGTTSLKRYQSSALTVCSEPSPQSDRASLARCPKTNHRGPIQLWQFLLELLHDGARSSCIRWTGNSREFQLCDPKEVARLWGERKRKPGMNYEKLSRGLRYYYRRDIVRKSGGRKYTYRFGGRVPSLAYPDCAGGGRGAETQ

In another test the target is T4, ETV3L (UniProt Q6ZN32).
T4 sequence: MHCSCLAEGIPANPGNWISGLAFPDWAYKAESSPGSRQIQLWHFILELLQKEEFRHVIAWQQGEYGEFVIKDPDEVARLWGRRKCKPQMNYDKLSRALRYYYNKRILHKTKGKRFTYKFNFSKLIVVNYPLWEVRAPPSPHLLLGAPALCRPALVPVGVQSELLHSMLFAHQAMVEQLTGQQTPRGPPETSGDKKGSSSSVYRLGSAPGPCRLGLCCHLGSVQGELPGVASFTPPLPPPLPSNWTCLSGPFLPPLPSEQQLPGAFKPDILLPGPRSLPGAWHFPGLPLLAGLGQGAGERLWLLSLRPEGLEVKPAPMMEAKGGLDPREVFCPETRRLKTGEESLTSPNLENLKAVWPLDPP

In the case of GTTCGG, the binding signal with FLI1 is 0.568; with EHF, 0.65; with SPIB, 0.63; with ETV5 it was 0.681; with ELF4, 0.628; in the test with ETV2, 0.554. This sequence had a binding signal with ETV3L of 0.62.

Regarding CGCGGT, the binding signal worked out at 0.829 in the test with FLI1; 0.927 with EHF; 0.966 with SPIB; 0.868 in the test with ETV5; 0.94 with ELF4; 0.888 with ETV2. In addition, the binding signal in the test with ETV3L was determined as 0.956.

Take GCCAAG: the binding signal came to 0.84 with FLI1; 0.861 with EHF; 0.779 with SPIB; 0.841 with ETV5; 0.883 in the test with ELF4; 0.814 in the test with ETV2. Further, in the test with ETV3L, the binding signal was 0.859.

With TCAGGC, the binding signal in the test with FLI1 was found to be 0.802; with EHF it was 0.669; in the test with SPIB, 0.727; in the test with ETV5, 0.713; in the test with ELF4, 0.695; with ETV2 it was 0.66. Further, the binding signal in the test with ETV3L was determined as 0.735.

As for GCATCA, the binding signal was determined as 0.688 in the test with FLI1; 0.756 with EHF; 0.743 with SPIB; 0.721 in the test with ETV5; 0.719 with ELF4; 0.745 with ETV2. Besides, in the test with ETV3L, the binding signal turned out to be 0.755.

Regarding CGGAGG, the binding signal in the test with FLI1 worked out at 0.278; with EHF, 0.285; with SPIB, 0.254; with ETV5, 0.265; in the test with ELF4 it was 0.273; with ETV2, 0.263. This sequence came in with a binding signal with ETV3L of 0.313.

Turning to GTCGCG, the binding signal with FLI1 amounted to 0.67; with EHF it was 0.699; with SPIB it was 0.652; with ETV5 it was 0.603; with ELF4, 0.641; with ETV2, 0.647. Also, the binding signal in the test with ETV3L is 0.56.

As for GGTGAT, the binding signal with FLI1 turned out to be 0.796; with EHF, 0.788; in the test with SPIB it was 0.894; in the test with ETV5, 0.77; in the test with ELF4, 0.889; with ETV2, 0.874. This sequence displayed a binding signal with ETV3L of 0.806.

For the sequence GAGTAT, the binding signal in the test with FLI1 was 0.595; with EHF it was 0.633; in the test with SPIB it was 0.588; with ETV5, 0.637; with ELF4, 0.64; with ETV2, 0.596. The sequence also gave a binding signal with ETV3L of 0.604.

As for GATAGG, the binding signal in the test with FLI1 was 0.822; with EHF, 0.81; with SPIB it was 0.847; with ETV5, 0.847; in the test with ELF4, 0.798; with ETV2 it was 0.945. Also, the binding signal with ETV3L is 0.837.

In the case of GTCTGC, the binding signal in the test with FLI1 came out at 0.96; with EHF, 0.957; in the test with SPIB, 0.951; with ETV5 it was 0.825; in the test with ELF4 it was 0.872; with ETV2, 0.849. The binding signal with ETV3L is 0.957.

Regarding ACGTCG, the binding signal with FLI1 worked out at 0.66; with EHF, 0.646; in the test with SPIB, 0.633; in the test with ETV5, 0.581; in the test with ELF4 it was 0.616; with ETV2, 0.64. Besides, the binding signal with ETV3L is 0.66.

With TCCAGG, the binding signal amounted to 0.844 with FLI1; 0.836 with EHF; 0.921 in the test with SPIB; 0.859 with ETV5; 0.857 in the test with ELF4; 0.772 in the test with ETV2. Besides, the binding signal with ETV3L was found to be 0.864.

In the case of GGGGTG, the binding signal with FLI1 was 0.65; in the test with EHF, 0.632; in the test with SPIB it was 0.683; with ETV5 it was 0.698; with ELF4, 0.643; in the test with ETV2, 0.715. This sequence yielded a binding signal with ETV3L of 0.689.

For CACCGT, the binding signal with FLI1 was 0.602; with EHF, 0.606; in the test with SPIB, 0.651; in the test with ETV5, 0.61; in the test with ELF4, 0.73; with ETV2 it was 0.692. The sequence further showed a binding signal in the test with ETV3L of 0.66.

For AAGCGT, the binding signal was found to be 0.944 in the test with FLI1; 0.86 with EHF; 0.951 with SPIB; 0.928 with ETV5; 0.842 with ELF4; 0.95 in the test with ETV2. In addition, the binding signal with ETV3L turned out to be 0.919.

In the case of TGTGTG, the binding signal in the test with FLI1 amounted to 0.845; with EHF it was 0.758; with SPIB it was 0.893; with ETV5, 0.943; with ELF4, 0.862; with ETV2, 0.873. The same sequence had a binding signal with ETV3L of 0.966.

On to AAAGGA, for which the binding signal with FLI1 was 0.854; with EHF, 0.862; with SPIB, 0.836; in the test with ETV5, 0.867; with ELF4, 0.85; with ETV2, 0.881. The binding signal with ETV3L came to 0.866.

With AGTTAG, the binding signal with FLI1 was found to be 0.776; in the test with EHF, 0.86; in the test with SPIB, 0.834; in the test with ETV5 it was 0.811; with ELF4, 0.833; in the test with ETV2 it was 0.78. Moreover, in the test with ETV3L, the binding signal came to 0.786.

With CAGCAG, the binding signal with FLI1 was found to be 0.85; with EHF it was 0.852; with SPIB, 0.833; with ETV5, 0.803; in the test with ELF4, 0.892; with ETV2, 0.845. In the test with ETV3L, the binding signal came out at 0.822.

In the case of AGGTAC, the binding signal amounted to 0.941 in the test with FLI1; 0.906 in the test with EHF; 0.91 in the test with SPIB; 0.937 in the test with ETV5; 1.01 in the test with ELF4; 0.775 with ETV2. The sequence further displayed a binding signal with ETV3L of 0.873.

Regarding GTGAGC, the binding signal with FLI1 is 0.384; with EHF, 0.417; in the test with SPIB it was 0.351; in the test with ETV5 it was 0.372; in the test with ELF4, 0.405; in the test with ETV2 it was 0.411. This sequence showed a binding signal with ETV3L of 0.402.

For the sequence GGACGT, the binding signal with FLI1 came out at 0.662; in the test with EHF, 0.579; with SPIB, 0.613; with ETV5 it was 0.548; in the test with ELF4, 0.562; in the test with ETV2, 0.601. In the test with ETV3L, this sequence displayed a binding signal of 0.566.

As to TGCCGT, the binding signal amounted to 0.869 with FLI1; 0.898 with EHF; 0.848 with SPIB; 0.837 with ETV5; 0.886 in the test with ELF4; 0.895 with ETV2. Also, the binding signal with ETV3L came out at 0.824.

Regarding AGTCCA, the binding signal with FLI1 was 0.72; in the test with EHF it was 0.678; with SPIB, 0.661; with ETV5 it was 0.732; with ELF4 it was 0.681; in the test with ETV2, 0.772. In addition, the binding signal in the test with ETV3L worked out at 0.699.

For the sequence AGACCA, the binding signal in the test with FLI1 was determined as 0.666; with EHF, 0.664; with SPIB it was 0.645; with ETV5, 0.611; with ELF4 it was 0.668; in the test with ETV2, 0.626. For the same sequence, in the test with ETV3L, the binding signal worked out at 0.603.

For the sequence ACGTGT, the binding signal with FLI1 came out at 0.643; in the test with EHF, 0.663; with SPIB, 0.632; in the test with ETV5, 0.666; with ELF4, 0.637; with ETV2 it was 0.607. In the test with ETV3L, the binding signal stood at 0.622.

With ATCAGG, the binding signal came to 0.99 with FLI1; 0.93 with EHF; 0.975 in the test with SPIB; 0.954 in the test with ETV5; 0.929 with ELF4; 0.856 with ETV2. For the same sequence, in the test with ETV3L, the binding signal amounted to 0.937.

For the sequence GAGGAC, the binding signal with FLI1 was determined as 0.615; with EHF, 0.66; with SPIB, 0.574; with ETV5, 0.596; with ELF4, 0.645; with ETV2 it was 0.726. The sequence further came in with a binding signal in the test with ETV3L of 0.629.

On to GTCGGT, for which the binding signal with FLI1 came out at 0.261; with EHF it was 0.303; in the test with SPIB, 0.301; in the test with ETV5, 0.274; with ELF4 it was 0.277; with ETV2, 0.295. This sequence also came in with a binding signal in the test with ETV3L of 0.287.
